Results on 61 compounds are retold here after PubChem BioAssay AID445 (National Center for Advancing Translational Sciences (NCATS), 2006).

Structures are written as SMILES. This is one part of the list. Shown are side measurements of this screen, not its main read-out; they come without a call. Most of these compounds were active or inconclusive in the main read-out, so they are no random draw. Potencies come from curve fits of mixed quality, noted in brackets.

The assay in a line: IkB Signaling. Conditions: ABC-DLBCL IkBa-CBG/CBR dual luciferase ratio (green luciferase fused to IkBa over red control in OCI-Ly3 lymphoma cells), 4 h. The method in brief: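 In this assay, an IκBα–CBG68 fusion accumulates when IKK-driven degradation is blocked; native CBR normalizes for cell number. OCI-Ly3 cells were treated 4 h with compound and doxycycline, then green and red light read after Chroma-Glo addition.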
Where [1] appears, read: measured here: control luc red channel unless noted.
Setting [2] is: measured here: IkB-luc green channel.
Setting [3] is: measured here: control luc red channel.

One may read the AC50 as the concentration giving half of the maximal activity seen. On to `Cc1ccc(S(=O)(=O)N2CCOCC2)cc1C(=O)Nc1ccc(-c2cn3ccsc3n2)cc1`, for which the AC50 under setting [1] was 10 µM [falling, partial curve].
`O=c1c2ccccc2nnn1CSc1ccc2c(c1)OCCO2`: the half-maximal activity concentration (AC50) under setting [1] is 20 µM [falling, partial curve].
Regarding `CCOC(=O)c1c(C)[nH]c(C)c1S(=O)(=O)NCC(=O)N1CCN(c2cc(Cl)ccc2C)CC1`, the concentration at half-maximal activity (AC50) under setting [1] is 20 µM [falling, single point].
On to `COCc1cc(C)nc2sc3c(c12)NC(c1ccccc1C(=O)O)N(c1ccc(OC)cc1)C3=O` (stereo not drawn), for which the half-maximal activity concentration (AC50) under setting [1] is 39.8 µM [falling, single point].
For `Cc1ccc(C)c(NC(=O)c2nnn(CC(=O)Nc3cccc(C)c3C)c2N)c1`, the AC50 under setting [1] was 15.8 µM [falling, partial curve, poor fit].
Turning to `Cc1ccc(S(=O)(=O)N2CCOCC2)cc1C(=O)OCC(=O)N1CCc2ccccc2C1`, under setting [1], the half-maximal activity concentration (AC50) is 25.1 µM [falling, single point].
As to `O=c1cc(CN2CCN(S(=O)(=O)c3ccccc3)CC2)nc2sc(-c3ccccc3Cl)nn12`, the half-maximal activity concentration (AC50) under setting [1] was 15.8 µM [falling, partial curve].
Turning to `O=C(CS(=O)(=O)c1nc(-c2ccc(Cl)cc2)cn1-c1ccccc1)Nc1ccc(F)cc1F`, the AC50 under setting [1] was 5.01 µM [falling, partial curve].
Take `CC(C)(C)OC(=O)N1CC=C2C(C#N)=C(N)C(C#N)(C#N)C(c3cccs3)C2C1` (stereo not drawn): the half-maximal activity concentration (AC50) under setting [1] is 25.1 µM [falling, partial curve].
With `Cn1c(=O)n(CCc2ccccc2)c(=O)c2c1nc1n2CCCN1CCc1ccccc1`, the half-maximal activity concentration (AC50) under setting [1] is 6.31 µM [falling, partial curve].
For the compound `Cc1ccc2c(c1)CC(C)N2S(=O)(=O)c1nnc(NC(=O)C(C)C)s1` (stereo not drawn), the half-maximal activity concentration (AC50) under setting [1] was 0.1 µM [rising, full curve].
As to `COc1ccc(-c2cc(C(F)(F)F)nc(SCCC(=O)Nc3cccc(O)c3)n2)cc1`, the half-maximal activity concentration (AC50) is 39.8 µM [rising, single point] under setting [2] and 31.6 µM [rising, single point] under setting [3].
For `CCOc1ccc(CCNC(=O)c2sc3ncccc3c2-n2c(C)ccc2C)cc1`, under setting [1], the concentration at half-maximal activity (AC50) is 25.1 µM [falling, partial curve].
On the same count and under the same terms, the same measure for `COC(=O)c1c(NC(=O)c2cc3nc(-c4ccc(Br)cc4)cc(C(F)(F)F)n3n2)sc2c1CCCC2`: 12.6 µM [rising, partial curve].
In the case of `COc1ccc(NC(=O)Cn2cc(C(=O)C3CCCCC3)c3ccccc32)cc1`, under setting [1], the AC50 is 0.00794 µM [falling, full curve, poor fit].
For `CC(C)Oc1ccc(C(=O)N2CC(=O)Nc3ccc(F)cc3C2c2ccc(F)cc2)cc1` (stereo not drawn), the AC50 under setting [1] is 10 µM [falling, partial curve].
On to `CCOc1ccc(CNC(=O)CN2C(=O)C3CCCCN3c3ccc(C(=O)N4CCCC4)cc32)cc1` (stereo not drawn), for which the AC50 under setting [1] was 10 µM [rising, partial curve].
Still for that read-out and setting: the same measure for `COc1ccc(Cn2ccc3nc(C)c(C(=O)N4CCN(c5cc(C)ccc5C)CC4)cc3c2=O)cc1`: 31.6 µM [falling, partial curve, poor fit]; for `CCc1cccc(C)c1NC(=O)C(CC)n1ncn2c(cc3cc(C)ccc32)c1=O` (stereo not drawn): 15.8 µM [falling, partial curve].
For `COc1ccccc1N1CC(O)=C(c2nc3ccccc3c(=O)[nH]2)C1=N`, the half-maximal activity concentration (AC50) under setting [1] was 5.01 µM [falling, partial curve].
In the case of `Cc1ccc(S(=O)(=O)c2nc(S(=O)(=O)c3ccc(C)cc3)c(NC(C)C)s2)cc1`, under setting [1], the AC50 was 0.501 µM [falling, single point].
For `CCOc1ccc(CNC(=O)c2cnc3sc(N4CCCCCC4)nn3c2=O)cc1OC`, the AC50 under setting [1] is 0.631 µM [rising, partial curve, poor fit].
Take `Cc1cc2n(n1)CCC(=O)N2Cc1ccc(C(=O)Nc2ccc(Br)c(C)c2)cc1`: the concentration at half-maximal activity (AC50) under setting [1] was 39.8 µM [falling, single point].
Regarding `COc1ccccc1-n1c(CNc2c(C)cccc2C)nnc1SCC(=O)N1CCOCC1`, under setting [1], the AC50 was 3.98 µM [falling, partial curve].
Turning to `COC(=O)c1c(NC(=O)COc2c(C)ccc(C)c2C)sc2c1CCC(C)C2` (stereo not drawn), the half-maximal activity concentration (AC50) under setting [1] was 25.1 µM [falling, single point].
Consider `CC1=C(C(=O)Nc2cccnc2)C(c2ccc(Cl)cc2)n2nc(SCc3ccccc3)nc2N1` (stereo not drawn), for which the half-maximal activity concentration (AC50) under setting [1] was 0.794 µM [falling, full curve, poor fit].
The same measure, in the same setting: with `O=C(CC1N=C2c3ccccc3N=C(SCc3ccccc3Cl)N2C1=O)NCc1cccs1` (stereo not drawn) the figure was 31.6 µM [falling, partial curve]; with `O=C(c1nc(-c2ccccc2)n(-c2ccccc2)n1)N1CCN(S(=O)(=O)c2ccccc2)CC1`, 25.1 µM [falling, single point]; with `COc1ccc(C(=O)NNc2ncnc3c2cnn3-c2ccccc2)cc1`, 10 µM [falling, partial curve].
On the same count and under the same terms, with `CCOc1ccc(NC(=O)Cc2ccc(-n3c(C)nc4cccnc43)cc2)cc1` the figure was 6.31 µM [falling, single point]; with `CCOC(=O)C1CCCN(Cc2cn3c(-c4ccc(Br)cc4)nnc3s2)C1` (stereo not drawn), 39.8 µM [rising, single point].
Still for that read-out and setting: the same measure for `CCc1nc(Nc2ccc(N3CCN(C(C)=O)CC3)cc2)c2oc3ccccc3c2n1`: 7.94 µM [falling, full curve].
`O=C(c1ccco1)N1CCC(c2ccccc2)C1` (stereo not drawn): under setting [1], the AC50 is 7.94 µM [falling, partial curve].
Take `CCN(CC)CCNC(=O)c1[nH]c2ccccc2c1Sc1ccc(Cl)cc1`: the AC50 under setting [1] is 15.8 µM [falling, single point].
Same read-out and setting: the same measure for `O=C(Nc1cc(Cl)ccc1Cl)c1cc(S(=O)(=O)N2CCCc3ccccc32)ccc1F`: 7.94 µM [falling, partial curve].
As for `CN(C(=O)c1ccc2c(c1)N(Cc1ccccc1F)C(=O)c1ccccc1S2(=O)=O)C1CCCCC1`, the half-maximal activity concentration (AC50) under setting [1] is 20 µM [falling, single point].
Same read-out and setting: with `Cc1cc(C)c(/C=C/c2onc(C)c2S(=O)(=O)N2CCC(C(=O)Nc3ccc(Cl)cc3C)CC2)c(C)c1` the figure was 20 µM [falling, partial curve]; with `Cc1ccccc1NC(=O)c1c(NC(=O)C(F)(F)F)sc2c1CCCCC2`, 0.631 µM [falling, full curve].
Regarding `N=c1n(CCO)c2ccccc2n1CCOc1ccc(Cl)cc1Cl`, the AC50 runs as follows: under setting [2], 15.8 µM [falling, partial curve]; under setting [3], 10 µM [falling, partial curve].
Turning to `COc1ccc(-c2nnc(Nc3nc4c(OC)cccc4s3)o2)cc1`, the AC50 under setting [1] was 6.31 µM [falling, partial curve].
On to `CCOC(=O)c1c(C)c(C(=O)NCc2ccc(Cl)cc2)c(C)n1CC`, for which the half-maximal activity concentration (AC50) under setting [1] is 0.0398 µM [falling, full curve, poor fit].
As for `CC(C)c1ccccc1Oc1c(C(F)(F)F)oc2c(CN3CCN(C)CC3)c(O)ccc2c1=O`, the AC50 under setting [1] is 31.6 µM [falling, single point].
The same measure, in the same setting: with `Cn1c(-c2ccc(S(=O)(=O)N3CCCC3)cc2)csc1=Nc1ccc(Cl)c(Cl)c1` the figure was 5.01 µM [falling, partial curve]; with `CCOc1ccccc1Nc1sc(C(=O)c2ccc(Cl)cc2)c(N)c1C(=O)NCCc1ccccc1`, 0.2 µM [falling, full curve, poor fit].
Take `Fc1ccc(N2CCN(C(c3cccs3)c3nnnn3CCc3ccccc3)CC2)cc1` (stereo not drawn): under setting [1], the AC50 is 12.6 µM [falling, partial curve].
Take `COc1ccc(NCc2cc3ccc(OC)cc3n(CC(=O)Nc3cccc(OC)c3)c2=O)cc1`: the half-maximal activity concentration (AC50) under setting [1] is 39.8 µM [falling, single point].
In the case of `OC(COc1ccc2ccccc2c1)CN1CCCC1` (stereo not drawn), the AC50 under setting [1] was 2 µM [falling, full curve].
For the compound `CCc1cccc(NC(=O)Cn2c(=O)n(CCC(=O)NCC3CCCO3)c(=O)c3cc(OC)c(OC)cc32)c1` (stereo not drawn), under setting [1], the AC50 was 12.6 µM [falling, partial curve].
`Cn1c(/N=C/c2cc(Cl)ccc2O)nc2ccccc21`: the AC50 under setting [1] was 5.01 µM [falling, partial curve].
For the compound `Cc1ccc(-c2nc3ncccc3o2)cc1NC(=O)c1ccccc1Br`, the concentration at half-maximal activity (AC50) under setting [1] was 3.98 µM [rising, partial curve].
`Cc1c(C(=O)Nc2ccc(F)cc2)oc2ccc(S(=O)(=O)N3CCC4(CC3)OCCO4)cc12`: the AC50 under setting [1] is 3.98 µM [falling, full curve].
On the same count and under the same terms, the same measure for `CCCCN(CCCNC(=O)CN1C(=O)COc2ccccc21)c1ccccc1`: 15.8 µM [falling, partial curve]; for `Cc1ccc(CSC2=Nc3ccccc3C3=NC(CC(=O)NCc4cccs4)C(=O)N23)cc1` (stereo not drawn): 12.6 µM [falling, partial curve].
For the compound `CC1CC(=O)N(CC(=O)Nc2ccc(F)cc2F)c2ccccc2S1` (stereo not drawn), under setting [1], the AC50 was 25.1 µM [falling, single point].
Regarding `O=C(CCCn1ccc2cc(S(=O)(=O)N3CCCC3)ccc21)NCc1ccc(Cl)cc1`, the concentration at half-maximal activity (AC50) under setting [1] is 15.8 µM [falling, partial curve].
As for `COc1ccc(NC(=O)Nc2cccc(-c3cn4cccnc4n3)c2)cc1`, the AC50 under setting [1] was 15.8 µM [falling, partial curve].
In the case of `COc1ccc(-c2cc(C(=O)N3CCN(c4ccc(F)cc4)CC3)no2)cc1OC`, the half-maximal activity concentration (AC50) under setting [1] was 12.6 µM [falling, partial curve].
For `COc1ccc(C2CC(=O)c3c([nH]c(C(=O)OC4CCCCCC4)c3C)C2)cc1OC` (stereo not drawn), under setting [1], the AC50 was 5.01 µM [falling, single point].
As for `CN(C(=O)c1cccc(C#N)c1)c1nnc(-c2cnccn2)s1`, the AC50 under setting [1] is 15.8 µM [rising, partial curve].
Take `COc1ccc(-n2nnc(-c3nc(-c4ccccc4C)no3)c2N)cc1Cl`: the AC50 under setting [1] is 0.0398 µM [rising, full curve].
On to `c1ccc(CC2CCN(c3nnnn3-c3ccccc3)CC2)cc1`, for which the AC50 under setting [1] is 39.8 µM [falling, single point].
